Test results published in publication PMC12622802, “Potent kinase inhibitors from the Merck KGaA OGHL: Novel hits against Trypanosoma brucei with potential for repurposing” (PLOS Neglected Tropical Diseases, 2025).
Where “and” joins values, the source holds several entries; their conditions need not be identical. Identical values can stand only once.

How the values were obtained:
Type in all cases: cell-based
[1] = system: Raw264.7 (murine macrophages); assay: Cytotoxicity, resazurin reduction assay, Raw264.7; details: confirmation screen, powdered form; ratio CC50 / IC50
Description: (§1) For cytotoxicity testing, they were seeded (90 µL) in 96-well plates at a density of 1x10^4 cells/well, in duplicate, and allowed to adhere overnight. […] Cell viability was then assessed using the resazurin reduction assay, as described above. […] Data were analysed using Microsoft Excel and GraphPad Prism 8.0. Nonlinear regression with a sigmoidal dose-response fit model was applied to the data to determine IC50 and CC50 values. Results represent the mean ± standard deviation (SD) from two independent experiments performed in duplicate.

[2] = system: Vero E6 (African green monkey kidney) cells; assay: Cytotoxicity, resazurin reduction assay, Vero; details: confirmation screen, powdered form
Description: as §1

[3] = system: HepG2 (human hepatocyte carcinoma) cells; assay: Cytotoxicity, resazurin reduction assay, HepG2; details: primary screen; CC50 HepG2/IC50 T. b. brucei
Description: Vero E6 (African green monkey kidney), Raw264.7 (murine macrophages) and HepG2 (human hepatocyte carcinoma) cell lines, sourced from the American Type Culture Collection, were cultured in DMEM supplemented with 10% (v/v) heat-inactivated fetal bovine serum, 1% (v/v) non-essential amino acids, and 1% (v/v) penicillin-streptomycin. Cells were maintained at 37 °C in a 5% CO2 atmosphere. For cytotoxicity testing, they were seeded (90 µL) in 96-well plates at a density of 1x10^4 cells/well, in duplicate, and allowed to adhere overnight. Serial dilutions (50-0.08 µM) of the compounds were prepared, and 10 µL of each were incubated with the monolayer for 48 hours. Podophyllotoxin was tested as a positive control at 10 μM and 0.5% DMSO (100% cell viability) was used as negative control. Cell viability was then assessed using the resazurin reduction assay, as described above. The 50% cytotoxic concentration (CC50) was calculated using GraphPad Prism software (version 8.0), and selectivity indices (SIs) were determined by dividing the […].
Data were analysed using Microsoft Excel and GraphPad Prism 8.0. Nonlinear regression with a sigmoidal dose-response fit model was applied to the data to determine IC50 and CC50 values. Results represent the mean ± standard deviation (SD) from two independent experiments performed in duplicate.

Row | SMILES | SI Raw [1] | SI Vero [2] | SI (HepG2) [3]
1 | CN(C)C(=O)/C=C/C(=O)c1ccc(SCc2ccc(Cl)cc2Cl)cc1 [OGHL00006, (E)-4-(4-((2,4-dichlorobenzyl)thio)phenyl)-N,N-dimethyl-4-oxobut-2-enamide] | 3.7 | > 2 and 2 | –
2 | CCCc1nn(C)c2c(=O)[nH]c(-c3cc(C(=O)N=C(N)N)ccc3OCC)nc12 [OGHL00103] | – | – | >6.38
3 | CNS(=O)(=O)c1ccccc1Nc1nc(Nc2cc(OC)c(OC)cc2C)ncc1Br [OGHL00133, 2-((5-bromo-2-((4,5-dimethoxy-2-methylphenyl)amino)pyrimidin-4-yl)amino)-N-methylbenzenesulfonamide] | 642.86 | – | –
4 | COc1cccc(CNc2nnc(-c3c[nH]c4ncccc34)o2)c1 [OGHL00138] | – | – | > 10 and 14.87
5 | COc1cc(OC)c(CCNC(=O)c2ccc3nc(-c4cc(OC)ccc4OC)cn3c2)c(OC)c1 [OGHL00231] | – | – | > 5.5
6 | CCC(C)[S+]([O-])c1ccc(-c2nc3ccncc3[nH]2)c(OC)c1 (stereo not drawn) [OGHL00019] | – | – | 7.97
7 | COc1ccc(OC)c(CCNC(=O)c2cn3cc(-c4cc(OC)ccc4OC)nc3s2)c1 [OGHL00225] | – | – | >5.07
8 | CNS(=O)(=O)c1ccccc1Nc1nc(Nc2ccc(N3CCOCC3)cc2OC)ncc1Br [OGHL00134] | – | – | > 10 and 16.84
9 | CCOc1cc(CCNC(=O)C[C@H]2S[C@@H](c3ccc(C#Cc4ccccc4)cc3)N(c3cccc(C(N)=O)c3)C2=O)ccc1O [OGHL00183] | – | – | 5.2
10 | COc1ccc(OCC(N)=O)cc1-c1cn2cc(C(=O)NCCc3c(OC)cccc3OC)sc2n1 [OGHL00241] | – | – | 4.05
11 | CCN=C(c1ccc(OC)c(OC)c1)N1CCCc2cc(C3=NNC(=O)SC3C)ccc21 (stereo not drawn) [OGHL00032] | – | – | 9.6
12 | Cn1cc(-c2cnc3[nH]cc(-c4cn(Cc5cccc(F)c5F)nn4)c3c2)cn1 [OGHL00169, 3-(1-(2,3-difluorobenzyl)-1H-1,2,3-triazol-4-yl)-5-(1-methyl-1H-pyrazol-4-yl)-1H-pyrrolo[2,3-b]pyridine] | 48.28 | – | –
13 | COc1ccc(C(=O)N2CCC(C)(C)c3cc(C4=NNC(=O)SC4C)ccc32)cc1OC (stereo not drawn) [OGHL00025] | – | – | >5.42
14 | COc1cc(OC)c(CCNC(=O)c2cn3cc(-c4cc(OC)ccc4OC)nc3s2)c(OC)c1 [OGHL00227] | – | – | > 10 and > 17.85
15 | Oc1ccc2[nH]cc(CCCCN3CC=C(c4ccccc4)CC3)c2c1 [OGHL00007] | – | – | >9.47
16 | COc1ccc(OCCCO)cc1-c1cn2cc(-c3nnc(NCCCCc4ccccc4)o3)ccc2n1 [OGHL00236] | – | – | 1.5
17 | COc1cc(OC)c(CCNC(=O)c2cn3cc(-c4cc(OCC#N)ccc4OC)nc3s2)c(OC)c1 [OGHL00238] | – | – | 0.75
18 | CNC(=O)c1cc(Oc2ccc(NC(=O)Nc3cc(C(F)(F)F)ccc3-n3ccnc3)cc2)ccn1 [OGHL00130] | – | – | 4.2
19 | CN(CCCCc1ccc(F)cc1)CCC(=O)c1ccc2[nH]c(=O)oc2c1 [OGHL00087] | – | – | 3.16
20 | Cc1ccccc1-c1ccc(-c2nc(-c3ccc(CN(C)CCC(=O)O)c(F)c3)no2)cc1OCC1CC1 [OGHL00165] | – | – | >5.63
